Assay results from patent US20200308299A1, “ANTI-GPC-1 ANTIBODY” (National University Corporation Kochi University, priority 2017, published 2020).
These are yes or no findings as the source states them, for the method shown. Some binding calls cover weakened binding; strength is not graded here.

Molecular target: T1, mouse Glypican-1 expressed on LLC-mGPC1-16 cells (mouse) (UniProt Q9QZF2)
T1 sequence: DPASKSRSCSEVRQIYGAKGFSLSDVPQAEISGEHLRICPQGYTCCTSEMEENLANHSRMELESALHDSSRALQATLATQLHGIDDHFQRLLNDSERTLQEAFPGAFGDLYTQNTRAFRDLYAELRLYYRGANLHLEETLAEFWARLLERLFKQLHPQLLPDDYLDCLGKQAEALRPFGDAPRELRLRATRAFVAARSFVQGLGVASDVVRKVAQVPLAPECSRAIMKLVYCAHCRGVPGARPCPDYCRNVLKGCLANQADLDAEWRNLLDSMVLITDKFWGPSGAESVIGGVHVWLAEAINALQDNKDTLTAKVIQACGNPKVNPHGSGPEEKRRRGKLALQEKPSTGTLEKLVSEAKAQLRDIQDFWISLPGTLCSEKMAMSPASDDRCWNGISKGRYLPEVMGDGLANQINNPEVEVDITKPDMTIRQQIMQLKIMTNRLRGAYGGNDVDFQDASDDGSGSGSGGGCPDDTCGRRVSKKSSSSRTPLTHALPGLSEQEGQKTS
Experiment: flow cytometry on LLC cells transfected with mouse GPC1

B1: anti-Glypican-1 antibody clone K090-01a033 (antibody, mouse IgG2a, kappa, V domains shown)
VH: QVQLKQSGPELVKPGASVKISCKASGYSFTGYYMHWVKQSPEKSLEWIGEINPSTGDTTYNQKFKAKATLTVDKSSSTAYMQLKSLTSEDSAVYYCAREKRDDGVFAYWGQGTLVTVSS
VL: DIVMSQSPKSMSMSVGERVALSCKASENVGTYVSWYQQKPEQSPKLLIYGASNRYTGVPDRFTGSGSATDFTLTISSVQAEDLADYYCGQSYSYPLTFGAGTKLELKR
  binding: binds
